Results as given in patent publication US20120046224A1, “TREATMENT OF DIABETES AND METABOLIC SYNDROME” (NORDIC BIOSCIENCE A/S, priority 2009, published 2012).
At least one structure is not confirmed: it was looked up by name or label, or the drawing left a doubt.

Assay: Body weight and whole body composition (MR scanning) in DIO rats
Format: in vivo, rat
Settings: for body weight during the course of the study: vs vehicle
Description: A total of 48 selectively bred male DIO rats were used. At the beginning of the experiment, the animals had reached an age of 35 weeks, out of which 31 weeks were on high-fat diet.
At day −7, 21 and 42 fasted serum and urine samples were collected and whole body tissue composition was evaluated by MR scanning. At day 42, an oral glucose tolerance test (OGTT) was performed to evaluate glucose homeostasis in the rats. At day −1 the animals were stratified according to weight and whole body fat mass (assessed by a 4-in-1 EchoMRI scanner) to the different treatment groups. The groups were randomized in three teams by body weight.
First day of dosing was day 0. Animals were dosed per oral 5 ml/kg. The compound solution was administered once daily at 7:00 AM-2:00 PM during the whole study (0-42 days) per oral gavage using a gastric tube connected to a 5 ml syringe (luer lock™. Becton).
To assess the distribution of the gained weight during the treatment program the animals were subjected to MR analysis after termination. Two parameters were investigated: 1) change in fatty mass and, 2) change in total water content.

CN(CCOc1ccc(CC2SC(=O)NC2=O)cc1)c1ccccn1 (stereo not drawn) [Rosiglitazone]
body weight during the course of the study (3 mg/kg once daily oral): significant (p=0.05) increase in their body weight | body weight during the course of the study (10 mg/kg once daily oral): significantly increased body weight | total fat (MR analysis) (both doses (3 and 10 mg/kg), vs vehicle group and 5-CNAC group): significant increases (p<0.0001) in total fat
